# Source: PubChem BioAssay AID504834 (National Center for Advancing Translational Sciences (NCATS), 2011)
# The whole screen tested about 320,000 compounds, of which about 22,000 (6.9%) were called active. This list was built around the results that the source calls inconclusive (neither active nor inactive); the mix of calls is not that of the screen. Calls follow the shape of the dose curve; as a rule, active = well fitted inhibition curve with a large enough effect; inconclusive = small, poorly fitted or top-dose-only effect, or another doubt; inactive = no such curve, though single readings can be large or run the other way. A potency beside an inconclusive call is a rough fit, not a confirmed value.
# Experiment: Primary qHTS for delayed death inhibitors of the malarial parasite plastid, 96 hour incubation
# Conditions: P. falciparum luciferase reporter growth; series mostly up to 28.7 µM; activity change, negative = inhibition: at the top concentration
# Description: The goal of this screen is to discover new antimalarial compounds that act by inhibiting the development of the apicoplast in the malarial parasite Plasmodium falciparum. The biochemical processes that make this organelle essential for erythrocytic stage parasites are not well understood. However, antibiotics such as azithromycin and tetracycline, which target the apicoplast translational machinery, have a potent antimalarial effect.
# We have developed a cell-based assay that measures parasite growth based on the expression of an integrated copy of a firefly luciferase reporter. To detect small molecules that cause this "delayed death" phenotype, erythrocytes infected with the luciferase-expressing parasites were incubated with compounds for either one or two generations, corresponding to 48 and 96 hours, respectively. Compounds that inhibit parasite growth in the second generation, but not the first, should be enriched in antimalarials that target the apicoplast. Growth inhibition is detected by a decrease in luciferase activity.
# Assay Provider: David Fidock and Eric Ekland, Columbia University
# Keywords: NIH Roadmap, MLPCN, MLI, MLSMR, qHTS, NCGC, qHTS, malaria, luciferase, viability
# Four microliters of infected erythrocytes (2% hematocrit, 0.05% parasitemia final concentration) in culture medium were dispensed and the plates incubated for 96 hours at 37 C in 5% CO2. Two microliters of luciferase detection reagent was added and luminescence was detected by a ViewLux (PerkinElmer) reader.
# % is scaled to controls: 0 for no effect and ±100 for the full control effect; potency is read from the fitted curve at half-maximal effect.
Compound,"activity change, negative = inhibition",Potency
Cn1c(SCC(=O)c2ccccc2)ncc(C(=O)Nc2ccc(F)cc2)c1=O,inactive: 98.4%,–
COc1cccc2cc(C(=O)NCCN3CCOCC3)c(=O)oc12,inactive: 14.6%,–
COc1ccc(F)cc1C1=CC(=O)C[C@H](c2ccc3c(c2)OCO3)C1,–,"inconclusive: 16.5 µM [inhibitor, single point]"
CCOc1ccc(NC(=O)Nc2cccc(C)n2)cc1,–,"inconclusive: 10.4 µM [inhibitor, single point]"
O=C(NNC(=O)c1cccnc1SCc1cccc([N+](=O)[O-])c1)c1ccccn1,inactive: 98.4%,–
CCCCc1ccc(NC(=O)CC(C)=O)cc1,–,"inconclusive: 7.38 µM [inhibitor, partial curve, poor fit]"
Cc1cc(/C=N/n2cnnc2)c(C)n1-c1cccc(C(=O)O)c1,–,"inconclusive: 1.04 µM [inhibitor, partial curve, poor fit]"
O=C(Nc1cccc(C(F)(F)F)c1)C1(c2ccccc2)CC1,inactive: 20.9%,–
Nc1cc[n+](CC(=O)c2ccc3c(c2)OCCO3)cc1,–,"inconclusive: 1.47 µM [inhibitor, full curve, poor fit]"
COc1ccc(CC(=O)NCc2ccc(Cl)cc2)cc1S(=O)(=O)N1CCOCC1,–,"inconclusive: 11.7 µM [inhibitor, partial curve, poor fit]"
Cn1c2c(c(=O)n(C)c1=O)C(C(F)(F)F)(C(F)(F)F)N=C(C1CCCCC1)N2,–,"inconclusive: 13.1 µM [inhibitor, partial curve, poor fit]"
COc1ccc(-c2cc(C(=O)Nc3cc(C)n(Cc4ccc(Cl)cc4)n3)no2)cc1OC,inactive: 115%,–
Cc1ccc(O)c(N=CC2=C(O)c3ccccc3C2=O)c1,inactive: 64.1%,–
COc1ccc2[nH]c(=S)cc(C)c2c1,–,"inconclusive: 18.5 µM [inhibitor, single point]"
COC(=O)c1cc(C)nc(Sc2ccccc2NC(C)=O)n1,–,"inconclusive: 0.0033 µM [inhibitor, full curve, poor fit]"
CC(NC(=O)c1ccccc1F)c1nnc(SCC(=O)NC2CCCCC2)n1C (centres undefined),–,"inconclusive: 3.7 µM [inhibitor, partial curve, poor fit]"
Cc1ccc(NC(=S)NCCC(c2ccccc2)c2ccccc2)c(C)c1,–,"inconclusive: 18.5 µM [inhibitor, single point]"
COc1ccc(C(=O)O/N=C(/C)c2cccs2)cc1,inactive: 12.9%,–
CCn1c(SCC(=O)NC2CCCCC2C)nnc1-c1ccc(OC)cc1 (centres undefined),–,"inconclusive: 16.5 µM [inhibitor, single point]"
C=C(C)CNC(=S)NNC(=O)CCn1c2ccccc2c2ccccc21,–,"inconclusive: 11.7 µM [inhibitor, single point]"
CCCOc1ccc(C(CC(=O)O)NC(=O)c2ccc3c(c2)OCO3)cc1 (centres undefined),–,"inconclusive: 18.5 µM [inhibitor, partial curve, poor fit]"
CCCCN(C(=O)Nc1ccc(Cl)cc1)C1CCN(C(C)=O)CC1,–,"inconclusive: 13.1 µM [inhibitor, single point]"
Cc1ccc2c(c1)Cc1nc3ccccc3nc1-2,–,"inconclusive: 18.5 µM [inhibitor, single point]"

# Molecules above containing sulfur:
Compound,"activity change, negative = inhibition",Potency
Cn1c(SCC(=O)c2ccccc2)ncc(C(=O)Nc2ccc(F)cc2)c1=O,inactive: 98.4%,–
O=C(NNC(=O)c1cccnc1SCc1cccc([N+](=O)[O-])c1)c1ccccn1,inactive: 98.4%,–
COc1ccc(CC(=O)NCc2ccc(Cl)cc2)cc1S(=O)(=O)N1CCOCC1,–,"inconclusive: 11.7 µM [inhibitor, partial curve, poor fit]"
COc1ccc2[nH]c(=S)cc(C)c2c1,–,"inconclusive: 18.5 µM [inhibitor, single point]"
COC(=O)c1cc(C)nc(Sc2ccccc2NC(C)=O)n1,–,"inconclusive: 0.0033 µM [inhibitor, full curve, poor fit]"
CC(NC(=O)c1ccccc1F)c1nnc(SCC(=O)NC2CCCCC2)n1C (centres undefined),–,"inconclusive: 3.7 µM [inhibitor, partial curve, poor fit]"
Cc1ccc(NC(=S)NCCC(c2ccccc2)c2ccccc2)c(C)c1,–,"inconclusive: 18.5 µM [inhibitor, single point]"
COc1ccc(C(=O)O/N=C(/C)c2cccs2)cc1,inactive: 12.9%,–
CCn1c(SCC(=O)NC2CCCCC2C)nnc1-c1ccc(OC)cc1 (centres undefined),–,"inconclusive: 16.5 µM [inhibitor, single point]"
C=C(C)CNC(=S)NNC(=O)CCn1c2ccccc2c2ccccc21,–,"inconclusive: 11.7 µM [inhibitor, single point]"

# The list goes on.

Compound,"activity change, negative = inhibition",Potency
CCOP(=O)(Cc1cc(C#N)oc1C)OCC,–,"inconclusive: 9.28 µM [inhibitor, single point]"
COc1ccc(NC(=O)CCCn2nc(C)c3c(C)n(-c4ccccc4)nc3c2=O)cc1,–,"inconclusive: 13.1 µM [inhibitor, partial curve]"
CN(C)Cc1ccccc1Sc1ccc(Br)cc1,–,"inconclusive: 18.5 µM [inhibitor, single point]"
NC(=O)c1nsc(C(=O)N(c2ccccc2)C(C(=O)NC2CCCC2)c2ccc3ncccc3c2)c1N (centres undefined),–,"inconclusive: 9.28 µM [inhibitor, single point]"
CC(=O)Nc1ccccc1OCC(=O)NC(C)c1ccccc1 (centres undefined),inactive: -8.71%,–
Cc1ccc(S(=O)(=O)N(CC(=O)NCc2ccccc2Cl)C(=O)N2CCN(C)CC2)cc1,inactive: 29.7%,–
COc1ccc2[nH]c3c(c2c1)CCN1C(=O)N([C@@H](C)C(=O)NCc2ccccc2OC)C(=O)[C@]31C,–,active: 7.38 µM
COCCCN(C(=O)CCOc1ccc(C(C)(C)C)cc1)c1c(N)n(Cc2ccccc2)c(=O)[nH]c1=O,–,"inconclusive: 7.38 µM [inhibitor, partial curve, poor fit]"
CCOc1nc(NC(=O)NS(=O)(=O)c2cccc(Cl)c2)nc(-c2ccccc2)n1,–,"inconclusive: 14.7 µM [inhibitor, partial curve, poor fit]"
CCOC(=O)c1oc2ccc(CNC(C)(C)C)c(Cl)c2c1C,–,"inconclusive: 18.5 µM [inhibitor, single point]"
COc1cccc(-c2c(C(=O)N/N=C(\C)c3ccco3)nnn2-c2nonc2N)c1,–,"inconclusive: 18.5 µM [inhibitor, single point]"
COc1ccc(-c2[nH]ncc2CN(C)C(C)c2ccon2)c(OC)c1 (centres undefined),–,"inconclusive: 18.5 µM [inhibitor, single point]"
Cc1cc(C)cc(-c2nc(-c3ccncc3)no2)c1,–,"inconclusive: 13.1 µM [inhibitor, partial curve, poor fit]"
COc1ccc(S(=O)(=O)N2CCCCCC2)cc1C(=O)N(CC(C)C)C1CCS(=O)(=O)C1 (centres undefined),inactive: -8.03%,–
CCN1CCN(c2ccc(S(=O)(=O)N3CCOCC3)cc2NC(=O)c2ccc(C)cc2C)CC1,–,"inconclusive: 18.5 µM [inhibitor, single point]"
C/C(=N\NC(=O)c1ccc2nc[nH]c2c1)c1ccc([N+](=O)[O-])cc1,inactive: -18.1%,–
Brc1c(CSc2nnc(-c3ccco3)o2)nc2ccccn12,inactive: -19%,–
Cc1ccc(N(CC(=O)NCc2ccccc2)C(=O)c2csnn2)c(C)c1,inactive: -1.31%,–
OC(c1ccccn1)(c1ccccn1)c1ccccn1,–,"inconclusive: 18.5 µM [inhibitor, single point]"
COc1ccc(-c2ccc(SCC(=O)N3CCOCC3)nn2)cc1,–,"inconclusive: 13.1 µM [inhibitor, single point]"
N#CC1=C(N)C(C#N)(C#N)[C@H](c2ccsc2)[C@H]2COCC=C12,–,"inconclusive: 13.1 µM [inhibitor, single point]"
COc1ccc(NS(=O)(=O)c2cccc(-c3n[nH]c(=S)n3Cc3ccccc3)c2)cc1,inactive: 23.9%,–
Cc1nc(C)c(-c2ccnc(/N=C/NO)n2)s1,–,"inconclusive: 7.38 µM [inhibitor, partial curve]"

# Among those listed so far, 2 have two or more sulfur atoms:
Compound,"activity change, negative = inhibition",Potency
COc1ccc(S(=O)(=O)N2CCCCCC2)cc1C(=O)N(CC(C)C)C1CCS(=O)(=O)C1 (centres undefined),inactive: -8.03%,–
COc1ccc(NS(=O)(=O)c2cccc(-c3n[nH]c(=S)n3Cc3ccccc3)c2)cc1,inactive: 23.9%,–

# (cont.)

Compound,"activity change, negative = inhibition",Potency
N#Cc1ccccc1NC(=O)CN(Cc1ccccc1)Cc1ccccc1,–,"inconclusive: 13.1 µM [inhibitor, single point]"
COCCN(C(=O)c1cc(S(=O)(=O)N2CCCCC2)ccc1Cl)c1c(N)n(CC(C)C)c(=O)[nH]c1=O,inactive: 5.89%,–
CCC(C)NC(=O)C1CCN(S(=O)(=O)c2ccc(-n3cnnn3)cc2)CC1 (centres undefined),–,"inconclusive: 1.65 µM [inhibitor, full curve, poor fit]"
COc1ccccc1C#Cc1ccc2c(=O)c3ccccc3n(C)c2c1,–,"inconclusive: 5.22 µM [inhibitor, partial curve, poor fit]"
C=C1CCC[C@]2(C)C[C@H]3OC(=O)C(CNC(C)CC)[C@H]3CC12 (some centres undefined),–,"inconclusive: 18.5 µM [inhibitor, single point]"
O=C(CN1C(=O)CSc2ccccc21)N1CCc2ccccc21,–,"inconclusive: 14.7 µM [inhibitor, single point]"
CC1CCN(C(=O)c2cc3c(ccc4ccccc43)o2)CC1,inactive: -28.1%,–
Cc1cc(C(=O)CN2CCCC(C)C2)c(C)n1-c1ccc(F)cc1 (centres undefined),–,"inconclusive: 16.5 µM [inhibitor, single point]"
CC(C)CNC(=O)CCCc1c[nH]c2ccccc12,–,"inconclusive: 18.5 µM [inhibitor, partial curve, poor fit]"
CC(C)c1ccccc1NC(=S)NC1CCCCC1,–,active: 4.65 µM
c1ccc2c(CN3CCOCC3)c[nH]c2c1,–,"inconclusive: 18.5 µM [inhibitor, single point]"
O=C(NC(Cc1cc(=O)[nH]c2ccccc12)C(=O)O)c1ccc(Cl)cc1 (centres undefined),inactive: 10.2%,–
O=C(COC(=O)c1ccc2c(c1)OCO2)Nc1ccccc1Cl,–,"inconclusive: 10.4 µM [inhibitor, partial curve, poor fit]"
COc1ccccc1CNC(=O)c1cc2c(=O)[nH]c3ccccc3c2n1C,inactive: -9.69%,–
OC(CNCc1ccccc1)(c1ccc(F)cc1)c1ccc(F)cc1,–,active: 2.08 µM
O=C(CCC(=O)OCC(=O)c1ccc(-c2ccccc2)cc1)Nc1cccc2cccnc12,–,"inconclusive: 0.0828 µM [inhibitor, full curve, poor fit]"
O=C(CCN1C(=O)/C(=C/c2ccc(F)cc2)SC1=S)NNC(=O)c1cccnc1,–,"inconclusive: 18.5 µM [inhibitor, single point]"
COc1ccc(N(CC(=O)NCc2ccc(Cl)cc2)S(=O)(=O)c2c(C)nn(C)c2C)cc1,inactive: 2.26%,–
CC(C)(C)c1ccc(NC(=S)NCCc2ccccn2)cc1,–,"inconclusive: 8.28 µM [inhibitor, partial curve, poor fit]"
Cc1nc([N+](=O)[O-])c(Br)n1CC(=O)c1ccc(Cl)cc1,–,"inconclusive: 10.4 µM [inhibitor, single point]"
O=C(Nc1nnc(C2CC2)s1)C1CC(=O)N(c2ccc3c(c2)OCCO3)C1 (centres undefined),inactive: 31.4%,–
Cc1cc(SCC(=O)N(C)CC(=O)Nc2ccc(F)cc2)nc2ccccc12,inactive: 2.76%,–
CCCN(CC(=O)Nc1ccc(F)c(F)c1F)C(=O)c1ccc(N2CCCC2=O)cc1,–,"inconclusive: 18.5 µM [inhibitor, single point]"
